Data as given in patent US20060134737A1.

Legend:
[1] = target: TNF receptor 2 (TNF-R2) wild type, pcDNAI-hTNF-R2 (human); experiment: co-immunoprecipitation of TNF-R2 with utr-1 from HEK293T lysates (FIG. 6)
[2] = target: TNF receptor 2 (TNF-R2) wild type, pcDNAI-hTNF-R2 (human); experiment: co-immunoprecipitation of TNF-R2 with utr-1 from HEK293T lysates with 0, 0.25, 1 or 2 µg E-TRAF2 plasmid; anti-cMyc and anti-E Western blots

B1: E-tagged murine TRAF2 (pEF6-E-mTRAF2) (protein, UniProt P39429 2-501, looked up, not shown: small tags and cut ends)
chain: AAASVTSPGSLELLQPGFSKTLLGTRLEAKYLCSACKNILRRPFQAQCGHRYCSFCLTSILSSGPQNCAACVYEGLYEEGISILESSSAFPDNAARREVESLPAVCPNDGCTWKGTLKEYESCHEGLCPFLLTECPACKGLVRLSEKEHHTEQECPKRSLSCQHCRAPCSHVDLEVHYEVCPKFPLTCDGCGKKKIPRETFQDHVRACSKCRVLCRFHTVGCSEMVETENLQDHELQRLREHLALLLSSFLEAQASPGTLNQVGPELLQRCQILEQKIATFENIVCVLNREVERVAVTAEACSRQHRLDQDKIEALSNKVQQLERSIGLKDLAMADLEQKVSELEVSTYDGVFIWKISDFTRKRQEAVAGRTPAIFSPAFYTSRYGYKMCLRVYLNGDGTGRGTHLSLFFVVMKGPNDALLQWPFNQKVTLMLLDHNNREHVIDAFRPDVTSSSFQRPVSDMNIASGCPLFCPVSKMEAKNSYVRDDAIFIKAIVDLTGL
[1]
  binding: binds
[2]
  binding: binds

No constants are given. Whether binding was seen depends on the method and setting. Binding seen in cells or lysates may run through a third protein. A result given as binding can be weak or reduced; the word gives no strength. Tags and fused reporters may be left off the sequences shown.
